According to the supplement of paper PMC12823440, “Inhibitors supercharge kinase turnover through native proteolytic circuits” (Nature, 2025):
This is one part of the list. Hit calls seldom repeat between salt and free forms of one compound.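 Kinases were expressed as nanoluciferase fusions in K562 cells and luminescence was read every 4 h between 2 and 18 h as percent of control, DMSO set to 100% and a positive control to 0%. A time point counts as decreased when the signal drops significantly (2 sigma). The hit call is the authors' own, does not follow from the count of time points alone, and its rule is not shown.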

Amino acid sequences for entries named in this document (tags omitted). A change or cut given only in a name is not applied to a line headed by its entry.
UniProt P28482, whole entry: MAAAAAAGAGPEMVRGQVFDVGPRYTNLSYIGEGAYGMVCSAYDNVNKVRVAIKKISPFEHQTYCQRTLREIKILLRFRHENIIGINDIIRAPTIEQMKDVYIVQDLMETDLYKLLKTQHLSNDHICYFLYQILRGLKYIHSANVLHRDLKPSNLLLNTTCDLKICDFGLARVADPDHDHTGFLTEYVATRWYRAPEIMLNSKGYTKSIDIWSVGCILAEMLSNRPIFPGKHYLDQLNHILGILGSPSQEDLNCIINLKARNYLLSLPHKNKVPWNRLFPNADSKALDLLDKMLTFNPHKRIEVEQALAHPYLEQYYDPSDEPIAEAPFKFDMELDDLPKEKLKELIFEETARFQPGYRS
UniProt Q00535, whole entry, looked up: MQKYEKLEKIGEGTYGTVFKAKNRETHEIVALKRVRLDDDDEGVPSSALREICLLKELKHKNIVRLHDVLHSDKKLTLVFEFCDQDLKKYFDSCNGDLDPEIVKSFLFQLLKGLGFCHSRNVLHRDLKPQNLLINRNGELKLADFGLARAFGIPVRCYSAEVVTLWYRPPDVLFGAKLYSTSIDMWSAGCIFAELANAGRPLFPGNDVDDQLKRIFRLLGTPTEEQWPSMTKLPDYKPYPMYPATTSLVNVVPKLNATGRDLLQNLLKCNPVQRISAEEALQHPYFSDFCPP
UniProt Q9BUB5: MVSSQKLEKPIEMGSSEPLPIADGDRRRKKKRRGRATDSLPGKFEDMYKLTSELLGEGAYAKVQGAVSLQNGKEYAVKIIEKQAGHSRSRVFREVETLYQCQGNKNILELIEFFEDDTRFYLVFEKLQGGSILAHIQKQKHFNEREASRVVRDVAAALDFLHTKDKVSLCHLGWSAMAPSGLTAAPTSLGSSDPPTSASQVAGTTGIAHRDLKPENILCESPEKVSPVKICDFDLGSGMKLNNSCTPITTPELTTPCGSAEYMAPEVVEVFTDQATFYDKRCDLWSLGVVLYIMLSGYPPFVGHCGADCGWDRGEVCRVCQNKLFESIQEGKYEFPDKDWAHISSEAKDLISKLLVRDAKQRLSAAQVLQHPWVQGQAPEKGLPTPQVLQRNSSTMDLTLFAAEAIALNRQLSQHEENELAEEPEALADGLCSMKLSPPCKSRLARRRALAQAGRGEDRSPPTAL
UniProt Q06187: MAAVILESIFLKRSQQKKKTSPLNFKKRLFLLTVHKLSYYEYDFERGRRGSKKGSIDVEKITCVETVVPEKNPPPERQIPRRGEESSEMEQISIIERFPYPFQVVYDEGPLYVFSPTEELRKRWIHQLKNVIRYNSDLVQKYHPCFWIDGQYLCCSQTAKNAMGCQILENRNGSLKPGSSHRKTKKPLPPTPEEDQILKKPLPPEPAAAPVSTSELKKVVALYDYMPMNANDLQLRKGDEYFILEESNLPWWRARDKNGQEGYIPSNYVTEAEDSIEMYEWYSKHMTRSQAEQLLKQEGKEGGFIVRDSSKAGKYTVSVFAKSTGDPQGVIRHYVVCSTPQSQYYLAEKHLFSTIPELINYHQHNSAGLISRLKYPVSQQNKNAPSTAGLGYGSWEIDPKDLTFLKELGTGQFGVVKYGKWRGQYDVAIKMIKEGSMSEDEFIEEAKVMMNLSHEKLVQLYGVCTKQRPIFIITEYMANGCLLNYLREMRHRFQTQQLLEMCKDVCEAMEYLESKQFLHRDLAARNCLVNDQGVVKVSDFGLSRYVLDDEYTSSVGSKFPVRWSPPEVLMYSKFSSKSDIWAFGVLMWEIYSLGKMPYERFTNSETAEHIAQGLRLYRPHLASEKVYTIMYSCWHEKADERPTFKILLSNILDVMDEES
UniProt Q9Y6E0: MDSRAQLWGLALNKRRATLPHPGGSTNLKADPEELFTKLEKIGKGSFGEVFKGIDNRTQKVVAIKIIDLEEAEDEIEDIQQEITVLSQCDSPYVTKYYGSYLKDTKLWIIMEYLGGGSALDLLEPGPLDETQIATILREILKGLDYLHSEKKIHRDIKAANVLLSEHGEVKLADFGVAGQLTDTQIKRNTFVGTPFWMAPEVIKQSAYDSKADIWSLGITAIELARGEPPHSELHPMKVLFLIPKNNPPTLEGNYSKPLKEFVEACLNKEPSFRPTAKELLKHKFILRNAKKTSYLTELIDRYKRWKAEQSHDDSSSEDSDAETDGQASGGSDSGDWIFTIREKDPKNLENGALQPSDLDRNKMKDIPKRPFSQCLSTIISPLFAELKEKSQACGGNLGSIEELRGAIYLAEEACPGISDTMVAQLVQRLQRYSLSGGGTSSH
UniProt Q15131: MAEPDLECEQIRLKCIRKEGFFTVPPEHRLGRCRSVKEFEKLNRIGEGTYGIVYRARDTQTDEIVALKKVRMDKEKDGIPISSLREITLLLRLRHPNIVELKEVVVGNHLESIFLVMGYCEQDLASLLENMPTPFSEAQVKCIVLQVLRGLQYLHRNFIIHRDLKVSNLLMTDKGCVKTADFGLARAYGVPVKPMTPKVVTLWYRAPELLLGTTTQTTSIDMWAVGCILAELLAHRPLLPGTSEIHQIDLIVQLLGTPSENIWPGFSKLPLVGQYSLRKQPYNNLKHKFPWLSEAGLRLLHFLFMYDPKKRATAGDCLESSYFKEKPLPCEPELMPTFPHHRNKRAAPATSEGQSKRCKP
UniProt P51813: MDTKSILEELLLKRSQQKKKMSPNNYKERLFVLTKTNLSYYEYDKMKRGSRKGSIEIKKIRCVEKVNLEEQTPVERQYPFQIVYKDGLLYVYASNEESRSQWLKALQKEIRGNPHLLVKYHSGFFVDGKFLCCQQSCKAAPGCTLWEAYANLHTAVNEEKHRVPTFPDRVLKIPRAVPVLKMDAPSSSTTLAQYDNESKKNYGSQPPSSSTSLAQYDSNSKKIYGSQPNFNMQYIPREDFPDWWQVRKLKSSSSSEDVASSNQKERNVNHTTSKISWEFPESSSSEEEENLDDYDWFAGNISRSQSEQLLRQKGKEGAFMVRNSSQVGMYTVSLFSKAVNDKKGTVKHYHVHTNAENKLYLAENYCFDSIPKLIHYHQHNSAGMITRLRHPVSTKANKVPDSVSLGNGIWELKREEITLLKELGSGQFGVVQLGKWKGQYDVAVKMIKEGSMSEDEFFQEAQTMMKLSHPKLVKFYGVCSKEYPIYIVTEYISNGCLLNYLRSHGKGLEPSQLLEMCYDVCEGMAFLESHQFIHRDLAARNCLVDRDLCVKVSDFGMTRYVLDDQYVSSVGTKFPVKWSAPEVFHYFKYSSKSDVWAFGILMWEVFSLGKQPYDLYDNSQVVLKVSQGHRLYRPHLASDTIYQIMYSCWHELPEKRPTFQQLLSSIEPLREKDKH
UniProt P29597: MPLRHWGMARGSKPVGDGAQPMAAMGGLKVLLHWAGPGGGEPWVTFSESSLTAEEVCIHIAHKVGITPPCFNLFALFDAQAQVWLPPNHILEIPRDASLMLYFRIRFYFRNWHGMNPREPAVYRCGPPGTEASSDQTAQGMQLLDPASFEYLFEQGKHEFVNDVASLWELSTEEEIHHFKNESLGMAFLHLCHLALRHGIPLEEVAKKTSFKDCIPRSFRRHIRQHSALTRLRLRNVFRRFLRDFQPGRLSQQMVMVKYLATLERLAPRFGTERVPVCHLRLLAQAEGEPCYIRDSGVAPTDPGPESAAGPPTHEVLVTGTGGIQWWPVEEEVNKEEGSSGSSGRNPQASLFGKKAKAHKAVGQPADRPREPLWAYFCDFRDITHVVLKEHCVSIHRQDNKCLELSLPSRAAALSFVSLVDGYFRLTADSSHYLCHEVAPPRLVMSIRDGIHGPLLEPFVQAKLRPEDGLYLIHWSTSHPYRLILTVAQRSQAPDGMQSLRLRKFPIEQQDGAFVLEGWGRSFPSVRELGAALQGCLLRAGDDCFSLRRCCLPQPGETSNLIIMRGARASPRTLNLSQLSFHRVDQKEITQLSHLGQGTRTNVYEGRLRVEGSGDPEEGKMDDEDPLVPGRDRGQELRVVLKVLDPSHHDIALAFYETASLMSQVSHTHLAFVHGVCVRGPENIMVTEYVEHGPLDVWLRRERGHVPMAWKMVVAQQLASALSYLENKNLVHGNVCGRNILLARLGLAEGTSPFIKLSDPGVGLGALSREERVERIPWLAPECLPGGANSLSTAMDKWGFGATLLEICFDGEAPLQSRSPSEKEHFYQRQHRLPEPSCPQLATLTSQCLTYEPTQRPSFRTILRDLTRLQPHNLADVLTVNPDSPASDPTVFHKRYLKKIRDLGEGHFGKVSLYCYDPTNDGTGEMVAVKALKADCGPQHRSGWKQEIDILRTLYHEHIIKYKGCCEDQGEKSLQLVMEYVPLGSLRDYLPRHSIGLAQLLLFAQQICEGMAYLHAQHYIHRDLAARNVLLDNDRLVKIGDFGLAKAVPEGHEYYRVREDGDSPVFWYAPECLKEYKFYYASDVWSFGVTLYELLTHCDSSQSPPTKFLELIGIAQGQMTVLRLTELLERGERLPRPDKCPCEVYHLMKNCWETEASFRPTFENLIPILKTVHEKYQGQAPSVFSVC
UniProt Q00526: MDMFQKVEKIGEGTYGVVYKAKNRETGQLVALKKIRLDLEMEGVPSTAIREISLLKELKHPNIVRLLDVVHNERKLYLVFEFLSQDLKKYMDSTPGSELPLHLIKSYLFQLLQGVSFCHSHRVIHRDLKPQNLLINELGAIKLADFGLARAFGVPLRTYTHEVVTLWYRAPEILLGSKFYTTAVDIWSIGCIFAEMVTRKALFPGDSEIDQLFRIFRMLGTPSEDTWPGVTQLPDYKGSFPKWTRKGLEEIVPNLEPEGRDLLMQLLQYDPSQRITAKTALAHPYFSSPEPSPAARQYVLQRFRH
UniProt Q15118, whole entry, looked up: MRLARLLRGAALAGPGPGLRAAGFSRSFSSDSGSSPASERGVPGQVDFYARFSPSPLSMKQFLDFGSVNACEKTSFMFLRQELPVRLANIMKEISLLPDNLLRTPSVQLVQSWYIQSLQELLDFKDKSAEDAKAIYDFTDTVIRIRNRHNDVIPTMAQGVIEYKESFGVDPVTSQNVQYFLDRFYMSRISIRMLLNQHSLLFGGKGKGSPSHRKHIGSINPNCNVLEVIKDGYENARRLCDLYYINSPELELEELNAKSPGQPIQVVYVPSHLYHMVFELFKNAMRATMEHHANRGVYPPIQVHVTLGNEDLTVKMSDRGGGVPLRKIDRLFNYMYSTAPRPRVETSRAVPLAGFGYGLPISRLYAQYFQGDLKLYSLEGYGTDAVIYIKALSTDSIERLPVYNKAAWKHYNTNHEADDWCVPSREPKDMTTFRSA
UniProt P21802, whole entry, looked up: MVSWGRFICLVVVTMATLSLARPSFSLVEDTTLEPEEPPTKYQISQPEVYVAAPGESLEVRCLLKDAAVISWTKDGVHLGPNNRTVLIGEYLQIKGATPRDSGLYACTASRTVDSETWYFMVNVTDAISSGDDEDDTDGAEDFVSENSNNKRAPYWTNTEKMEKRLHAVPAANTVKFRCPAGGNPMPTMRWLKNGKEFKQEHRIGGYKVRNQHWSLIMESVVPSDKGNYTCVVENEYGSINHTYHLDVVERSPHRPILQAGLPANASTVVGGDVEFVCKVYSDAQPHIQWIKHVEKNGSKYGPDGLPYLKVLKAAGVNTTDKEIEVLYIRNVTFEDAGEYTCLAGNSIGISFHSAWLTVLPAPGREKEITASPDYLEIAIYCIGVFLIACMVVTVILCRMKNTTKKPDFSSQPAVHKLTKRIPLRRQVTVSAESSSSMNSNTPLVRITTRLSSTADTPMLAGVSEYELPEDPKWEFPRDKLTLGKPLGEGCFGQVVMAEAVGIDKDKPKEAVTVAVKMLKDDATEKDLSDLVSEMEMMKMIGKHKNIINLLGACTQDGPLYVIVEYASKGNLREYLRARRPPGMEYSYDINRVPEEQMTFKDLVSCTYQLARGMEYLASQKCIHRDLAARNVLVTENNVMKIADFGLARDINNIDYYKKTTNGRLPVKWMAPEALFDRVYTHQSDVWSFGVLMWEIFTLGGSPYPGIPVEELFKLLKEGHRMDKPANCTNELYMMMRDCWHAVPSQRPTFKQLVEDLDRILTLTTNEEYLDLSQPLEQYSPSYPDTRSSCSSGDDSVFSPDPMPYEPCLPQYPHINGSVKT
UniProt P31152, whole entry: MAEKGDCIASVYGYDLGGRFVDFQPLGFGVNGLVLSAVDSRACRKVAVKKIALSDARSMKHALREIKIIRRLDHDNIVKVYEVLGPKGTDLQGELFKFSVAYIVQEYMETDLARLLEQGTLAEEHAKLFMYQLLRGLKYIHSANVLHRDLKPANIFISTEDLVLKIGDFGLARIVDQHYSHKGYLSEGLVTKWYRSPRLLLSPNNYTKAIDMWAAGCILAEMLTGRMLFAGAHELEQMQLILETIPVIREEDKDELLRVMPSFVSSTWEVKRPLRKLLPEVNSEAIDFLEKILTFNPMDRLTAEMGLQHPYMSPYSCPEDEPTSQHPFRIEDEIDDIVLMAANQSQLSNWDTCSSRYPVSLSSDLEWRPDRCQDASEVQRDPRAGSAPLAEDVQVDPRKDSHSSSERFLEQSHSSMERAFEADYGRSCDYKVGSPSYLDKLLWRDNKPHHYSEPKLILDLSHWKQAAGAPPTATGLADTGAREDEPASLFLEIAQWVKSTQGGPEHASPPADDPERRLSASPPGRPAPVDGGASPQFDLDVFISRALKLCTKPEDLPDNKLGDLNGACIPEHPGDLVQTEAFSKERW

Columns and labels:
Assay in all cases: number of time points (of 5) at which kinase-Nluc abundance scored as decreased, DMSO-normalised (count); higher = more persistent destabilization
[1] = compound: C[C@H]1Oc2cc(cnc2N)-c2c(nn(C)c2C#N)CN(C)C(=O)c2ccc(F)cc21 [Lorlatinib]; conditions: 10 µM; K562; 2-18 h
[2] = compound: Cc1[nH]c(/C=C2\C(=O)Nc3ccc(F)cc32)c(C)c1C(=O)NC[C@H](O)CN1CCOCC1; conditions: 2.5 µM; K562; 2-18 h
[3] = compound: Cc1cc(C)n2c1C=C1C=CC(CCC(=O)NCCN3CCN(C/C=C/C(=O)N4CCCC(n5nc(-c6ccc(Oc7ccccc7)cc6)c6c(N)ncnc65)C4)CC3)=[N+]1[B-]2(F)F; conditions: 2.5 µM; K562; 2-18 h
[4] = compound: Cc1cc(Nc2cc(N3CCN(C)CC3)nc(/C=C/c3ccccc3)n2)n[nH]1 [ENMD-2076 (Tartrate)]; conditions: 2.5 µM; K562; 2-18 h
[5] = compound: Cc1cc(Nc2cc(N3CCN(C)CC3)nc(/C=C/c3ccccc3)n2)n[nH]1; conditions: 2.5 µM; K562; 2-18 h
[6] = compound: Cc1cc2c(F)c(Oc3ncnn4cc(OC[C@@H](C)O)c(C)c34)ccc2[nH]1 [Brivanib]; conditions: 10 µM; K562; 2-18 h
[7] = compound: Cc1cc2ncnn2cc1Nc1ncc2c(n1)n(C1CCOCC1)c(=O)n2C; conditions: 10 µM; K562; 2-18 h
[8] = compound: Cc1ccc(-n2nc(C(C)(C)C)cc2NC(=O)Nc2ccc(OCCN3CCOCC3)c3ccccc23)cc1 [Doramapimod]; conditions: 10 µM; K562; 2-18 h
[9] = compound: Cc1ccc(Nc2nccc(N(C)c3ccc4c(C)n(C)nc4c3)n2)cc1S(N)(=O)=O [Pazopanib (Hydrochloride)]; conditions: 10 µM; K562; 2-18 h
[10] = compound: Cc1ccc(Nc2nccc(N(C)c3ccc4c(C)n(C)nc4c3)n2)cc1S(N)(=O)=O [Pazopanib]; conditions: 10 µM; K562; 2-18 h

Measured: number of time points

FGFR1 (UniProt P11362)
0: [1] | [2] | [3]

ARAF (UniProt P10398)
0: all assays above

INSRR (UniProt P14616)
0: all assays above

CAMK2A (UniProt Q9UQM7)
1: [2]
0: all other assays above

RIPK2 (UniProt O43353)
0: all assays above

MAPK1 (UniProt P28482)
0: all assays above

NTRK2 (UniProt Q16620)
0: all assays above

ERBB3 (UniProt P21860)
0: all assays above

ERN1 (UniProt O75460)
0: all assays above

RIPK1 (UniProt Q13546)
0: all assays above

CDK5 (UniProt Q00535)
0: all assays above

SRC (UniProt P12931)
0: all assays above

MKNK1 (UniProt Q9BUB5)
0: all assays above

ROR2 (UniProt Q01974)
0: all assays above

CDK2 (UniProt P24941)
0: all assays above

PRKAA1 (UniProt Q13131)
0: all assays above

HER2 (UniProt P04626)
0: all assays above

LMTK2 (UniProt Q8IWU2)
0: all assays above

ZAK (UniProt Q9NYL2)
0: all assays above

AURKC (UniProt Q9UQB9)
0: all assays above

YES1 (UniProt P07947)
0: all assays above

ULK3 (UniProt Q6PHR2)
0: all assays above

ZAP70 (UniProt P43403)
0: all assays above

TEC (UniProt P42680)
0: all assays above

BTK (UniProt Q06187)
0: all assays above

STK24 (UniProt Q9Y6E0)
0: all assays above

BRAF (UniProt P15056)
not listed: [8] | [9] | [10]
0: all other assays above

PAK4 (UniProt O96013)
0: all assays above

PDPK1 (UniProt O15530)
0: all assays above

PBK (UniProt Q96KB5)
0: all assays above

MAPKAPK2 (UniProt P49137)
0: all assays above

SPHK1 (UniProt Q9NYA1)
0: all assays above

CHEK2 (UniProt O96017)
not listed: [7]
0: all other assays above

IRAK3 (UniProt Q9Y616)
0: all assays above

AURKA (UniProt O14965)
not listed: [7]
0: all other assays above

EPHA2 (UniProt P29317)
not listed: [8]
0: all other assays above

LIMK1 (UniProt P53667)
not listed: [7] | [9] | [10]
0: all other assays above

DYRK1B (UniProt Q9Y463)
0: all assays above

RIOK1 (UniProt Q9BRS2)
0: all assays above

RAF1_S257L (clone: RAF1_mut) (UniProt P04049)
3: [9]
0: all other assays above

FYN (UniProt P06241)
not listed: [7] | [9] | [10]
0: all other assays above

PIK4CA (UniProt P42356)
0: all assays above

DYRK2 (UniProt Q92630)
2: [4]
0: all other assays above

PLK1 (UniProt P53350)
0: all assays above

MAP2K2 (UniProt P36507)
0: all assays above

CDK10 (UniProt Q15131)
0: all assays above

FGR (UniProt P09769)
0: all assays above

BMX (UniProt P51813)
4: [7]
0: all other assays above

PRKCA (UniProt P17252)
0: all assays above

PIK4CB (UniProt Q9UBF8)
0: all assays above

LIMK2 (UniProt P53671)
not listed: [7]
0: all other assays above

CSNK1A1 (UniProt P48729)
0: all assays above

TYK2 (UniProt P29597)
0: all assays above

CDK3 (UniProt Q00526)
0: all assays above

FGFR3 (UniProt P22607)
not listed: [7]
0: all other assays above

ERBB4_R711C (clone: ERBB4_mut) (UniProt Q15303)
1: [5]
0: all other assays above

CDK6 (UniProt Q00534)
5: [2]
0: all other assays above

GSK3A (UniProt P49840)
0: all assays above

RET (UniProt P07949)
not listed: [7]
0: all other assays above

BRAF_V600E
1: [10]
0: all other assays above

PDK1 (UniProt Q15118)
0: all assays above

MAP2K1 (UniProt Q02750)
not listed: [7]
0: all other assays above

FLT3 (UniProt P36888)
0: all assays above

FGFR2 (UniProt P21802)
not listed: [7]
0: all other assays above

CSF1R (UniProt P07333)
0: [1] | [3] | [4] | [5] | [6]

JAK1 (UniProt P23458)
not listed: [2]
0: all other assays above

EGFR_L858R (UniProt P00533)
not listed: [4] | [5]
0: all other assays above

AURKB (UniProt Q96GD4)
not listed: [2] | [7]
0: all other assays above

EGFR_T790M (UniProt P00533)
not listed: [4] | [5]
0: all other assays above

CSNK1D (UniProt P48730)
not listed: [7]
0: all other assays above

PTK2B (UniProt Q14289)
not listed: [2] | [8]
0: all other assays above

RAF1 (UniProt P04049)
not listed: [7]
0: all other assays above

LCK (UniProt P06239)
not listed: [4] | [5] | [6]
0: all other assays above

EGFR_L861Q (UniProt P00533)
not listed: [4] | [5]
0: all other assays above

LYN (UniProt P07948)
not listed: [7]
0: all other assays above

EGFR_L718V (UniProt P00533)
not listed: [4] | [5]
0: all other assays above

PTK2 (UniProt Q05397)
not listed: [4] | [5] | [8]
0: all other assays above

RPS6KA1 (UniProt Q15418)
not listed: [2]
0: all other assays above

CAMK2G (UniProt Q13555)
not listed: [7]
0: all other assays above

BLK (UniProt P51451)
not listed: [3] | [7]
0: all other assays above

EGFR_G719S_T790M (UniProt P00533)
1: [10]
not listed: [4] | [5]
0: all other assays above

MAPK4 (UniProt P31152)
not listed: [7]
0: all other assays above

STK38 (UniProt Q15208)
not listed: [7]
0: all other assays above

AKT1 (UniProt P31749)
not listed: [7]
0: all other assays above

ABL1 (UniProt P00519)
0: [1] | [3]

SYK (UniProt P43405)
not listed: [4] | [5] | [7]
0: all other assays above

PDGFRB (UniProt P09619)
not listed: [4] | [5] | [7]
0: all other assays above

EGFR (UniProt P00533)
not listed: [4] | [5]
0: all other assays above

MAP4K2 (UniProt Q12851)
not listed: [7]
0: all other assays above

EGFR_G719S (UniProt P00533)
not listed: [4] | [5]
0: all other assays above

NTRK3 (UniProt Q16288)
not listed: [2] | [7] | [8]
0: all other assays above

RET_M918T (clone: RET_mut) (UniProt P07949)
not listed: [3] | [7]
0: all other assays above

CSK (UniProt P41240)
not listed: [7]
0: all other assays above

DDR1 (UniProt Q08345)
not listed: [1] | [7] | [8]
0: all other assays above

ALK (UniProt Q9UM73)
not listed: [1] | [7]
0: all other assays above
